Measurements reported in PubChem BioAssay AID1053209 (Peter MacCallum Cancer Centre, 2014)
In all, the deposit lists about 1,580 reagents; this is a part drawn at random. 207 of them (13%) were called active. 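Rows are single siRNAs; four siRNAs per gene were tested, a gene counting as confirmed only when at least two agree.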 Entries without a mark were called inactive. The numbers tell different reagents against one gene apart. Further read-outs or replicates are left out here.

- Screen: 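Gene losses that combine with doxorubicin to kill mouse bone cancer cells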 (follow-up of hits)
- Cells: mouse primary osteosarcoma cells
- Knock-down reagent: single siRNA against mouse genes, 25 nM (text also states 40 nM)
- Time to read-out: about 120 h (48 h before drug, then 72 h with drug)
- Conditions: doxorubicin 100 nM (about IC30-40), added 48 h after transfection, for 72 h
- Detection: 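ATP-based luminescent viability, with or without doxorubicin, relative to non-targeting control NT1, mean of two replicates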
- Scale: viability with doxorubicin, vs NT1: higher = more viable cells under doxorubicin; viability without drug, vs NT1: higher = more viable cells without drug
- Active means: 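Active when doxorubicin viability is at most 0.7 of NT1 and drug-free viability lies between 0.7 and 1.1, class LC dox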

Ppih (GeneID 66101) #1 — combined effect class = normal viability with and without drug; viability with doxorubicin, vs NT1 = 0.97; viability without drug, vs NT1 = 0.98
Ppih (GeneID 66101) #2 — combined effect class = low viability only with doxorubicin; normal without drug (active); viability with doxorubicin, vs NT1 = 0.55; viability without drug, vs NT1 = 0.8
Ppih (GeneID 66101) #3 — combined effect class = normal viability with and without drug; viability with doxorubicin, vs NT1 = 0.92; viability without drug, vs NT1 = 1.04
Ppih (GeneID 66101) #4 — combined effect class = normal viability with and without drug; viability with doxorubicin, vs NT1 = 1.04; viability without drug, vs NT1 = 0.95

Part of the list above, showing only “viability with doxorubicin, vs NT1”:
Ppih (GeneID 66101) #2	0.55 (active)
Ppih (GeneID 66101) #3	0.92

Additional results follow:
Lonp2 (GeneID 66887) #1 — combined effect class = normal viability with and without drug; viability with doxorubicin, vs NT1 = 0.92; viability without drug, vs NT1 = 1
Lonp2 (GeneID 66887) #2 — combined effect class = normal viability with and without drug; viability with doxorubicin, vs NT1 = 1.02; viability without drug, vs NT1 = 1
Lonp2 (GeneID 66887) #3 — combined effect class = normal viability with and without drug; viability with doxorubicin, vs NT1 = 1.04; viability without drug, vs NT1 = 0.96
Lonp2 (GeneID 66887) #4 — combined effect class = normal viability with and without drug; viability with doxorubicin, vs NT1 = 1.02; viability without drug, vs NT1 = 0.97
Tcp11l1 (GeneID 320554) #1 — combined effect class = low viability with and without drug; viability with doxorubicin, vs NT1 = 0.2; viability without drug, vs NT1 = 0.62
Tcp11l1 (GeneID 320554) #2 — combined effect class = normal viability with and without drug; viability with doxorubicin, vs NT1 = 1.06; viability without drug, vs NT1 = 1.02
Tcp11l1 (GeneID 320554) #3 — combined effect class = normal viability with and without drug; viability with doxorubicin, vs NT1 = 1.01; viability without drug, vs NT1 = 1.04
Tcp11l1 (GeneID 320554) #4 — combined effect class = normal viability with and without drug; viability with doxorubicin, vs NT1 = 1.09; viability without drug, vs NT1 = 1.08
